In PMC10564737, “Structure-based design of a phosphotyrosine-masked covalent ligand targeting the E3 ligase SOCS2” (Nature Communications, 2023):
Several values for one entry are separate records, joined by “and”; a condition that tells them apart may be missing. Equal values may be shown once. The source gives many values for each of these; only a part stands here.

The chains behind the UniProt entries cited, without tags or fusion partners. Residues count along the entry.
UniProt O14508, 32-198: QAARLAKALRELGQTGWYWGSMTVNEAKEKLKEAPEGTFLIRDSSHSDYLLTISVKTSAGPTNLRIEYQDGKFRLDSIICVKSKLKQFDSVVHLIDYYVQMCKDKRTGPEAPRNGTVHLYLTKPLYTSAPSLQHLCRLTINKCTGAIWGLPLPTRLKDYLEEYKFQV

Target: T1, SBC2 (Homo sapiens, UniProt O14508)
T1 construct: SOCS2 (amino acids 32–198); His6 (N, cleaved yes); made in house; host or cells: E. coli BL21(DE3)
Experiment: Covalent fluorescence polarization (FP) probe displacement assay
Assay type: binding
Source text: With the specific covalent modification of Cys111 established, we decided to fully characterize MN551 as a covalent SOCS2 inhibitor. […] (Fig. 2g, h, Supplementary Fig. 9). Due to the covalent nature of the competing inhibitor, a time-dependent reduction in the fraction of protein-bound probe is observed. […] This value illustrates reasonable specificity for a covalent inhibitor, with nonetheless scope for future optimization. In addition to characterizing the kinetic covalency parameters, we have also assessed the stability of the MN551 by monitoring its reactivity (half-life >70 min) with reduced glutathione (GSH) (Supplementary Fig. 10)[35].
To monitor the SBC2-ligand binding kinetics we designed a fluorescein-labeled small-molecule probe - compound 26. The fluorescence polarization (anisotropy) of a threefold serial dilution of 50 µM SBC2 in 10 nM of the probe in 100 mM HEPES pH 7.5, 50 mM NaCl, 0.5 mM TCEP, 2% DMSO was measured to determine the KL (Supplementary Fig. 9A) (BMG Labtech PHERAstar – firmware v1.33). Protein titration and the curves were fitted using GraphPad Prism 9, using one-site fitting models to determine the probe binding constant, KL. Samples were run in triplicate in 384 well plates, using a total volume per well of 16 μL. The bound fraction of the probe is measure using the equation:1 Fb=Af−A/Af−Ab Where,
A time-dependent reduction in probe anisotropy were measured for a 2-fold serial dilution of […] compound MN551 in 10 nM probe +300 μM SBC2. To determine the initial reversible binding affinity, the initial bound fraction of the probe at time = 0, Fbo (the y-intercept in Fb v/s Time plot, Supplementary Fig. 9B) was plotted against MN551 concentration, and the obtained IC50 is then converted to Ki (Supplementary Fig. 9C)[17]. The slope from Fb versus time graph when divided by Fbo gives rate of covalency, kobs. A plot of kobs v/s MN551 concentration using Michaelis–Menten model of GraphPad Prism 9, provides the parameters kinact (maximum potential rate of inactivation) and KI (concentration of MN551 at which kobs = kinact/2) (Supplementary Fig. 9D, E).
The observed first-order rate constant, kobs is related to KI and kinact by the equation:2 kobs=kinactI/KI+I
At [I]«[KI] the above equation is converted to3 […]
The slope from the plot of kobs against concentration of MN551 gives us the covalent efficiency parameter kinact/KI (Supp Fig. 9F)[30],[33].

[1] = MN551 714.286 nM, Cycle 17 (80 min), n=1
[2] = MN551 714.286 nM, Cycle 18 (85 min), n=1
[3] = MN551 714.286 nM; Cycle 7 (30 min)
[4] = MN551 714.286 nM; Cycle 8 (35 min)
[5] = MN551 714.286 nM; Cycle 9 (40 min)
[6] = MN551 714.286 nM; Cycle 10 (45 min)
[7] = MN551 714.286 nM; Cycle 11 (50 min)
[8] = MN551 714.286 nM; Cycle 13 (60 min); n=1
[9] = MN551 714.286 nM; Cycle 14 (65 min); n=1
[10] = MN551 714.286 nM; Cycle 15 (70 min); n=1
[11] = MN551 714.286 nM; Cycle 16 (75 min); n=1
[12] = MN551 781.25 nM, Cycle 8 (35 min)
[13] = MN551 781.25 nM, Cycle 9 (40 min)
[14] = MN551 781.25 nM, Cycle 10 (45 min)
[15] = MN551 781.25 nM; Cycle 6 (25 min)
[16] = MN551 781.25 nM; Cycle 7 (30 min)
[17] = MN551 781.25 nM; Cycle 8 (35 min)
[18] = MN551 781.25 nM; Cycle 9 (40 min)
[19] = MN551 781.25 nM; Cycle 10 (45 min)
[20] = MN551 781.25 nM; Cycle 11 (50 min)
[21] = MN551 781.25 nM; Cycle 12 (55 min); n=1
[22] = MN551 781.25 nM; Cycle 13 (60 min); n=1
[23] = MN551 781.25 nM; Cycle 14 (65 min); n=1
[24] = MN551 781.25 nM; Cycle 15 (70 min); n=1
[25] = MN551 781.25 nM; Cycle 16 (75 min); n=1

SMILES: O=C(CCl)Nc1cccc(CNC(=O)[C@H](Cc2ccc(OP(=O)(O)O)cc2)NC(=O)Cc2ccc(F)cc2)c1 [MN551]
- Anisotropy [1]: 237.9 and 238.6 and 232.7
- Anisotropy based on Raw Data (485) [1]: 243.3 and 241.6 and 239.7
- Normalised anisotropy (0 nM MN551 = 1, free probe = 0) [1]: 0.6644 and 0.6609 and 0.6309
- Anisotropy [2]: 235.2 and 237 and 232.2
- Normalised anisotropy (0 nM MN551 = 1, free probe = 0) [2]: 0.6467 and 0.6628 and 0.6468
- Fb, fraction bound (MN551 714.286 nM; Cycle 4 (15 min)): 0.8142 and 0.7832 and 0.8111
- Fb, fraction bound (MN551 714.286 nM; Cycle 5 (20 min)): 0.7929 and 0.7648 and 0.7716
- Fb, fraction bound (MN551 714.286 nM; Cycle 6 (25 min)): 0.7718 and 0.7678 and 0.7476
- Anisotropy data 485,520,520 [3]: 249.7 and 242.4 and 244.5
- Fb [3]: 0.7971 and 0.8141 and 0.8669
- Fb, fraction bound [3]: 0.7417 and 0.7594 and 0.7543
- Anisotropy [4]: 252.5 and 250.3 and 249
- Anisotropy data 485,520,520 [4]: 248.4 and 243 and 240.7
- Fb [4]: 0.7809 and 0.8055 and 0.8758 and 0.7671 and 0.7269 and 0.741
- Anisotropy [5]: 251.7 and 248.5 and 246.5
- Anisotropy data 485,520,520 [5]: 247.1 and 241.1 and 241
- Fb [5]: 0.765 and 0.8067 and 0.8399 and 0.7665 and 0.7044 and 0.7135
- Anisotropy [6]: 249.6 and 248.6 and 245.3
- Anisotropy data 485,520,520 [6]: 244.8 and 240.9 and 237.3
- Fb [6]: 0.7881 and 0.7625 and 0.8742 and 0.7462 and 0.721 and 0.7103
- Anisotropy [7]: 247.4 and 247 and 246.2
- Anisotropy data 485,520,520 [7]: 240.4 and 237.5 and 238.1
- Fb [7]: 0.7309 and 0.7174 and 0.7362
- Fb (MN551 714.286 nM; Cycle 11 (50 min); column head blank in this cycle): 0.753 and 0.7838 and 0.8332
- Anisotropy (MN551 714.286 nM; Cycle 12 (55 min); n=1): 240.5 and 233.8 and 234.5
- Anisotropy (MN551 714.286 nM; Cycle 13 (60 min)): 243.7 and 242.5 and 239.6
- Anisotropy [8]: 237.3 and 232.8 and 234.9
- Anisotropy based on Raw Data (485) [8]: 247.7 and 245.6 and 245.2
- Anisotropy [9]: 240.4 and 233.7 and 232.7
- Anisotropy based on Raw Data (485) [9]: 246.3 and 243.7 and 244.2
- Anisotropy [10]: 234.2 and 233.9 and 231.4
- Anisotropy based on Raw Data (485) [10]: 246.6 and 241.1 and 241
- Anisotropy [11]: 233.1 and 230.4 and 229.7
- Anisotropy based on Raw Data (485) [11]: 243.9 and 243.5 and 239.6
- Anisotropy data 485,520,520 (MN551 714.286 nM; Cycle 20 (95 min); n=1): 233.9 and 232.3 and 229.3
- Fb (MN551 781.25 nM, Cycle 7 (30 min)): 0.7388 and 0.8119 and 0.7637
- Anisotropy based on Raw Data (485) [12]: 263.9 and 261.2 and 257.6
- Fb [12]: 0.734 and 0.7973 and 0.7717
- Anisotropy based on Raw Data (485) [13]: 259.6 and 259.9 and 257.2
- Fb [13]: 0.6944 and 0.8002 and 0.7768
- Anisotropy based on Raw Data (485) [14]: 259.1 and 258.8 and 254.4
- Fb [14]: 0.6913 and 0.7833 and 0.7715
- Anisotropy (MN551 781.25 nM, Cycle 13 (60 min), n=1): 253.1 and 252.5 and 251.1
- Anisotropy (MN551 781.25 nM, Cycle 14 (65 min), n=1): 252.9 and 251.3 and 247.3
- Anisotropy (MN551 781.25 nM, Cycle 15 (70 min), n=1): 250.1 and 248.5 and 246.3
- Anisotropy (MN551 781.25 nM, Cycle 16 (75 min), n=1): 249.4 and 246.8 and 244.5
- Anisotropy (MN551 781.25 nM, Cycle 17 (80 min), n=1): 245.8 and 245 and 243.4
- Anisotropy (MN551 781.25 nM, Cycle 18 (85 min), n=1): 245.1 and 243.2 and 240.3
- Fb, fraction bound (MN551 781.25 nM; Cycle 4 (15 min)): 0.8687 and 0.8686 and 0.8309
- Fb, fraction bound (MN551 781.25 nM; Cycle 5 (20 min)): 0.8321 and 0.8721 and 0.8284
- Fb [15]: 0.859
- Fb, fraction bound [15]: 0.8392 and 0.8593 and 0.8155
- Anisotropy data 485,520,520 [16]: 259.9 and 262.5 and 265.9
- Fb [16]: 0.8484 and 0.8402 and 0.8905
- Fb, fraction bound [16]: 0.8272 and 0.8447 and 0.8254
- Anisotropy [17]: 262.2 and 260.4 and 261.8
- Anisotropy data 485,520,520 [17]: 258.5 and 261.9 and 262
- Fb [17]: 0.8192 and 0.8263 and 0.8481 and 0.8337 and 0.8121 and 0.8329
- Anisotropy [18]: 262.4 and 260.9 and 259.7
- Anisotropy data 485,520,520 [18]: 255.4 and 257.4 and 259.2
- Fb [18]: 0.8086 and 0.7984 and 0.8282 and 0.8255 and 0.8299 and 0.8242
- Anisotropy [19]: 257.2 and 257.1 and 255.4
- Anisotropy data 485,520,520 [19]: 254.7 and 257 and 260.1
- Fb [19]: 0.816 and 0.8042 and 0.845 and 0.7833 and 0.8081 and 0.7888
- Anisotropy [20]: 255.5 and 256.4 and 252.8
- Anisotropy based on Raw Data (485) [20]: 259 and 256.7 and 252.9
- Anisotropy (MN551 781.25 nM; Cycle 11 (50 min); n=1): 251 and 254.5 and 254.7
- Anisotropy [21]: 249.8 and 253.4 and 255.1
- Anisotropy based on Raw Data (485) [21]: 257 and 255 and 249.4
- Anisotropy [22]: 247.8 and 252.2 and 252.5
- Anisotropy based on Raw Data (485) [22]: 253.5 and 254 and 249.2
- Anisotropy [23]: 246.6 and 249.8 and 252.1
- Anisotropy based on Raw Data (485) [23]: 255 and 251.5 and 247
- Anisotropy [24]: 245 and 249.1 and 251.2
- Anisotropy based on Raw Data (485) [24]: 251.7 and 252.7 and 245.9
- Anisotropy [25]: 241.6 and 246.3 and 245.8
- Anisotropy based on Raw Data (485) [25]: 251.7 and 249.2 and 242.7
- Anisotropy data 485,520,520 (MN551 781.25 nM; Cycle 19 (90 min); n=1): 243.7 and 241.8 and 238.9
- Anisotropy data 485,520,520 (MN551 781.25 nM; Cycle 20 (95 min); n=1): 243.3 and 240.7 and 237.1
- Fb (MN551 1000 nM, Cycle 7 (30 min)): 0.631 and 0.6514
- Fb (MN551 1000 nM, Cycle 8 (35 min)): 0.6552 and 0.6115 and 0.6373
